Test results as given in publication PMC5173251.
No constants are given. Whether binding was seen depends on the method and setting. In cells and extracts the contact can be indirect. Here binding means that the protein was enriched with, or labelled near, the bait; the list need not be complete.

By UniProt entry, the sequences of proteins in these tests, tags left out.
UniProt Q558Z2: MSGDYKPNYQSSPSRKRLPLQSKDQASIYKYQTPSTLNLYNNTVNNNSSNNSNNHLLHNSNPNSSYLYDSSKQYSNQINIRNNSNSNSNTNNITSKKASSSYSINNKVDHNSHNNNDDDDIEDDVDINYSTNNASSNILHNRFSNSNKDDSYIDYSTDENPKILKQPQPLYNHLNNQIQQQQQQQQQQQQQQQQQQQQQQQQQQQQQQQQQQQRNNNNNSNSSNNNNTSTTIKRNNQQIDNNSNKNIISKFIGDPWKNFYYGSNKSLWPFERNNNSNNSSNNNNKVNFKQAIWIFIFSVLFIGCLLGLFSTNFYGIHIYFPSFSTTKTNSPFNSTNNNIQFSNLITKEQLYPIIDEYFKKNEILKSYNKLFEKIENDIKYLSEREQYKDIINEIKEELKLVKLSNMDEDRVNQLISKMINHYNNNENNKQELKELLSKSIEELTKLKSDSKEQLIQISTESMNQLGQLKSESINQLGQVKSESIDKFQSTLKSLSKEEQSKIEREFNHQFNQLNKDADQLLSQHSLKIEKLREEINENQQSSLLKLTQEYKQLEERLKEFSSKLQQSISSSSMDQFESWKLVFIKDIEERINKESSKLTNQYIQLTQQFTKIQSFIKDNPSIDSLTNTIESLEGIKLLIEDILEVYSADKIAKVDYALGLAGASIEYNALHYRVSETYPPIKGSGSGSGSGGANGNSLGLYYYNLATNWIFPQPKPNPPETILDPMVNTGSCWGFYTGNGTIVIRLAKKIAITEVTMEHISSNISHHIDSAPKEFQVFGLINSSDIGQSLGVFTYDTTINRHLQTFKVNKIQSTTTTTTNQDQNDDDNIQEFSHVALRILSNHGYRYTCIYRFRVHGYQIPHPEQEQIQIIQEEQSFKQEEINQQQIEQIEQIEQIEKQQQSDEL

Biological target: GFP-Sun-1 (D. discoideum) (UniProt Q558Z2)
Test: affinity purification with mass spectrometry; lysate of AX2 cells expressing GFP-Sun-1, GFP antibodies on protein A Sepharose beads; bands cut from SDS gel and identified by MS (text: LCMS; legend of S2 Table: MALDI-MS)

binding: binds
B1: DdNKAP (endogenous) (protein, UniProt Q55ED4 1-510)
chain: MSHRERDRDRDRDSDRDRDRNRYSRSRSRGSRSRSRSRSRSRDRNRNRDYNKDRSSNRDSYYNDRDYKKDRSSNRDRDYYDRDRNRDYKNSSSGSSSGGGGGGSGENYTVKSSSYRESNSNNSKVEIQKQENISKDYFIDNKGVNNSIERKDNIKNENNNNNSFDNRKAEFNNNSYGEKKEFDNNNNRNYHGGNSRYVNNNNNNNNNNYNNNNNKSNYNGTDFFEYRKKLREEATCFSVYERSPSPPKKGELEEIDDQFLSNKKKSKKSRRKSSSNSDSSSSDSDSDSSRSREKRKKSKSRKDKKKRKEKKKHQRKSSKRSSKYSDSDSDSDSSFSDSDYSDSDRSDSEGRSRKKRSKKRSKKRHDHHKESVHDASMWEEKVEQQTQTLSNRDIGPKPISEVQVGSYGGAMMPGEAEAIAQFVKENKRIPRRGEVGLTSEQIASFEETGYVMSGSRHRRMNAVRIRKESQVYSAEEQKALAMLNREEKAKRENRLLADFRDLINTKLQAD
